# Assay results as given in PubChem BioAssay AID1159583 (ICCB-Longwood Screening Facility, Harvard Medical School, 2016).
# Some of the results follow. Some results for these compounds are left out of this collection, so the calls shown say nothing about other tests.
# Experiment: hypoxia reporter signal reduction in M. tuberculosis – fluorescence, absorbance growth readout, primary screen (AID 1159583)
# Details: M. tuberculosis hypoxia-regulated fluorescent reporter, measured here: M. tuberculosis growth (absorbance), stronger effect = higher value, concentration not given here
row,SMILES,growth inhibition
1,O=C(NCC1(N2CCCCC2)CCCCC1)c1cccc(Cl)c1,-1.84%
2,COc1cccc(C(=O)NCC2(N3CCCCC3)CCCCC2)c1,1.54%
3,COc1ccc(Cl)cc1C(=O)NCC1(N(C)C)CCCCC1,7.05%
4,COc1cc(C(=O)NCC2(N(C)C)CCCCC2)c([N+](=O)[O-])cc1OC,7.63%
5,CN(C)C1(CNC(=O)c2ccc(Br)cc2)CCCCC1,8%
6,CC(C)Oc1ccc(C(=O)NCC2(N(C)C)CCCCC2)cc1,9.43%
7,O=C(OCCN1CCCC1)C(O)(c1ccccc1)c1ccccc1,16.7%
8,COc1ccc(Br)c(C(=O)NCC2(N3CCCCC3)CCCCC2)c1,2.93%
9,O=C(OC1CN2CCC1CC2)C(CO)(c1ccccc1)c1ccccc1 (configuration not stated),-0.814%
10,Cc1ccc(C(=O)NCC2(N3CCCCC3)CCCCC2)cc1,-2.84%
11,COc1cc(SC)ccc1C(=O)NCC1(N(C)C)CCCCC1,-5.37%
12,CN1[C@@H]2CC[C@H]1CC(OC(=O)C(O)(c1ccccc1)c1ccccc1)C2 (some centres not stated),7.52%
13,O=C(NCC1(N2CCCCC2)CCCCC1)c1cc([N+](=O)[O-])ccc1Cl,-0.21%
14,COc1ccc(C(=O)NCC2(N(C)C)CCCCC2)cc1,9.91%
15,CCN1CCCC(OC(=O)C2(O)c3ccccc3C=Cc3ccccc32)C1 (configuration not stated),-1.59%
16,Cc1cc(C(=O)NCC2(N3CCCCC3)CCCCC2)ccc1[N+](=O)[O-],3.64%
17,O=C(NCC1(N2CCCCC2)CCCCC1)c1cccc(Br)c1,-0.847%
18,O=C(NCC1(N2CCCCC2)CCCCC1)c1cc(F)c(F)cc1Cl,-3.7%
19,CN(C)CCOC(=O)C(O)(c1ccccc1)C1CCCCC1 (configuration not stated),4.56%
20,Cc1ccccc1C(=O)NCC1(N2CCCCC2)CCCCC1,1.97%
21,CN(C)c1ccc(C(=O)NCC2(N(C)C)CCCCC2)cc1,2.27%
22,CN(C)C1CCCC1OC(=O)C(O)(c1ccccc1)c1ccccc1 (configuration not stated),0.857%
